Assay results taken from paper PMC10244696, “Thioredoxin TRXo1 is involved in ABA perception via PYR1 redox regulation” (Redox Biology, 2023).
These are yes or no findings as the source states them, for the method shown. For some of these results: In cells and extracts the contact can be indirect. Some entries that bind do so weakly or less than the wild type. For some of these results: Sequences can lack the tags named with a protein.

Amino acid sequences for entries named in this document (tags omitted). Residues count along the entry.
UniProt P02769, residues 25-607: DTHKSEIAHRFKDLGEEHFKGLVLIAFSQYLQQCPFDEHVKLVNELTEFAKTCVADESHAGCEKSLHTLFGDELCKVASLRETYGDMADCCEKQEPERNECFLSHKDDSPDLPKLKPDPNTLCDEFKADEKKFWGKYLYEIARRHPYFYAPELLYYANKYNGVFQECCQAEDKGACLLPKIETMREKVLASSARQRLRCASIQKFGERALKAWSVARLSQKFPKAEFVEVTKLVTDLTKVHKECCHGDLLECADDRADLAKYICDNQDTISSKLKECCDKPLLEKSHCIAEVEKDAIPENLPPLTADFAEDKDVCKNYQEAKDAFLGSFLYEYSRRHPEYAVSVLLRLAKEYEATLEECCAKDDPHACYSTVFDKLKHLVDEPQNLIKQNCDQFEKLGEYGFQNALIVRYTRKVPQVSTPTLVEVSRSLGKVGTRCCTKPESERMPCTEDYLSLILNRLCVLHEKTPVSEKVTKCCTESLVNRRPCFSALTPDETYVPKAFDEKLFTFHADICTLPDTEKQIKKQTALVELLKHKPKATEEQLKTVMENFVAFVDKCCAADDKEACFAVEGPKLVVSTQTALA

Columns and labels:
[1] = target: recombinant HisAtPYR1 (Arabidopsis thaliana) (UniProt O49686); assay: SDS-PAGE and Western blot of oligomeric forms; recombinant HisAtPYR1 in 20 mM Tris-HCl pH 7.9 treated with 2 mM DTT, 30 min, room temperature; SDS-PAGE, anti-AtPYR1; both purified
[2] = target: bovine serum albumin (bovine) (UniProt P02769); assay: far-Western, overlay or dot blot; 1 or 0.5 μg PsTRXo1 and HisPsTRXo1C37S and 10 μg BSA spotted on nitrocellulose, overlaid with 10 μg/ml HisAtPYR1 in TBS, 2 h, room temperature; detected with anti-PYR1; both purified
[3] = target: T1, recombinant HisAtPYR1 (Arabidopsis thaliana), O49686; assay: disulfide mapping by bottom-up LC-MS/MS; recombinant PYR1, DTT-treated and then 4 mM H2O2 (with or without 2 mM dimedone), free thiols labelled with 4 mM NEM, trypsin, nano LC-MS on Orbitrap Fusion Lumos, pLink2; no S-S found in the DTT-treated protein; both purified; settings: remark: other sources report otherwise
T1 chain: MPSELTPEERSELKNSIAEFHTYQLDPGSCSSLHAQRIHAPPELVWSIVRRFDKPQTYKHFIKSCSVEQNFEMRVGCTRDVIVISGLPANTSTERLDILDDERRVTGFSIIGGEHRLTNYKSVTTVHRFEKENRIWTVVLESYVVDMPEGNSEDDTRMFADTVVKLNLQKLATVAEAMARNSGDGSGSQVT

[4] = target: AtPYR1 fused to a GFP half (BiFC) (Arabidopsis thaliana) (UniProt O49686); assay: split reporter; BiFC with GFP halves (pNX, pXN, pCX, pXC) in agroinfiltrated Nicotiana benthamiana leaves, confocal microscopy after 72 h

recombinant HisAtPYR1 (from UniProt O49686 1-191) (receptor)
binding [1]: binds weakly
binding [2]: no binding (tested: 10 μg/ml HisAtPYR1)

B1: recombinant HisAtPYR1, O49686 1-191 (receptor)
chain: MPSELTPEERSELKNSIAEFHTYQLDPGSCSSLHAQRIHAPPELVWSIVRRFDKPQTYKHFIKSCSVEQNFEMRVGCTRDVIVISGLPANTSTERLDILDDERRVTGFSIIGGEHRLTNYKSVTTVHRFEKENRIWTVVLESYVVDMPEGNSEDDTRMFADTVVKLNLQKLATVAEAMARNSGDGSGSQVT
binding [3]: binds

B2: AtTRXo1 fused to a GFP half (BiFC) (enzyme, UniProt O64764 43-194)
chain: SSLIARNSLFTASNIGPSIDFNFSNTSLPHRRSLCSEAGGENGVVLVKSEEEFINAMSKAQDGSLPSVFYFTAAWCGPCRFISPVIVELSKQYPDVTTYKVDIDEGGISNTISKLNITAVPTLHFFKGGSKKGEVVGADVTKLKNLMEQLYK
binding [4]: binds
